Data reported in patent publication US4596790A (Nyegaard & Co. A/S, priority 1983, dated 1986).

Test: general procedure: solution-phase peptide synthesis

Row | Substance | step yield (late stage modification step) | step yield (coupling step)
1 | PEPTIDE1{[pGlu].Q.D.G}$$$$V2.0 | 74% | –
2 | Z-L-pGlu-L-Gln-L-Asp(β-OBzl)-Gly-OBzl | – | 73%

HELM strings list residues between dots; [ac] is acetyl, [am] amide, other brackets name non-standard units.
